Test results from the supplement of paper PMC11060735.
Structures can show the parent of a compound that is named as a salt. ± gives the standard deviation of the averaged measurements. Whole data set: some 1,800 compounds, median “GFP- (p16Ink4a-) cell count relative to negative-control wells” near 0.99, cut for the lowest 2% near 0.5. The list shows a part of the results.

test system: mouse p16Ink4a+/- lung fibroblasts (INKBRITE, bleomycin-injured); assay: GFP- (p16Ink4a-) cell count relative to negative-control wells (fold of vehicle); higher = more p16Ink4a- cells surviving; conditions: 1 µM; 3 days

Structure (SMILES) | GFP-
Cc1ccc(C(=O)c2cc(O)c(O)c([N+](=O)[O-])c2)cc1 [Tolcapone] | 0.983
C/C1=C2/N[C@H]([C@H](CC(N)=O)[C@@]2(C)CCC(=O)NC[C@@H](C)OP(=O)(O)O[C@H]2[C@@H](O)[C@@H](n3cnc4cc(C)c(C)cc43)O[C@@H]2CO)[C@]2(C)N=C(/C(C)=C3N=C(/C=C4N=C1[C@@H](CCC(N)=O)C\4(C)C)[C@@H](CCC(N)=O)[C@]\3(C)CC(N)=O)[C@@H](CCC(N)=O)[C@]2(C)CC(N)=O [Vitamin B12] | 0.847
CC(=O)Oc1cc(C(F)(F)F)ccc1C(=O)O [Triflusal] | 1.07
COC(=O)C1=C(C#N)N=C(C)/C(=C(\O)OC(C)C)C1c1cccc([N+](=O)[O-])c1 (stereo not given) [Nilvadipine] | 0.683
CN(C)CCc1c[nH]c2ccc(CS(=O)(=O)N3CCCC3)cc12 [Almotriptan] | 1.27
N#CSc1cc(SC#N)c(N)nc1N | 1.02
COc1cc(O)c2c(c1)C(=O)c1cc(C)cc(O)c1C2=O [Physcion] | 0.956
C[C@H](C(=O)O)c1ccc(-c2ccccc2)c(F)c1 [Flurbiprofen] | 0.969
CC#C[C@]1(O)CC[C@H]2[C@@H]3CCC4=CC(=O)CCC4=C3[C@@H](c3ccc(N(C)C)cc3)C[C@@]21C [Mifepristone] | 0.963
CN1CCC(CNc2ccc3ncc(-c4cccc(OC(F)(F)F)c4)n3n2)CC1 | 1 ± 0.028
CCCCCCOC(=O)/N=C(\N)c1ccc(NCc2nc3cc(C(=O)N(CCC(=O)OCC)c4ccccn4)ccc3n2C)cc1 [Dabigatran etexilate] | 1.02
O=C(O)[C@H]1O[C@H](Oc2cc3oc(-c4ccccc4)cc(=O)c3c(O)c2O)[C@H](O)[C@@H](O)[C@@H]1O [Baicalin] | 0.798
CC(C)(C)NS(=O)(=O)c1cncc(-c2cc(F)c3nc(N)nn3c2)c1 | 0.961
O=C1C(c2c(O)[nH]c3ccccc23)=Nc2ccccc21 [Indirubin] | 1.08
C[C@H](NC(=O)Cc1cc(F)cc(F)c1)C(=O)N[C@@H]1C(=O)N(C)c2ccccc2-c2ccccc21 | 0.862
Cc1cnc(Nc2ccc(N3CCN(C)CC3)cc2)nc1Nc1cccc(S(=O)(=O)NC(C)(C)C)c1 | 0.779 ± 0.037
Cc1c(C(=O)Nc2ccc(N3C[C@@H](C)O[C@@H](C)C3)nc2)cccc1-c1ccc(OC(F)(F)F)cc1 [Sonidegib] | 1.01
Nc1cc(C(Cl)=C(Cl)Cl)c(S(N)(=O)=O)cc1S(N)(=O)=O [Clorsulon] | 1.08
C[C@H](NC(=O)Cc1cc(F)cc(F)c1)C(=O)N[C@H](C(=O)OC(C)(C)C)c1ccccc1 | 0.859
C[C@H]1C[C@H]2[C@@H]3CCC4=CC(=O)C=C[C@]4(C)[C@H]3C(=O)C[C@]2(C)[C@@]1(O)C(=O)CO [Meprednisone] | 0.906
CN(C)c1nc(N(C)C)nc(N(C)C)n1 [Altretamine] | 1.1
C=CC(=O)Nc1ccc2ncnc(Nc3ccc(OCc4cccc(F)c4)c(Cl)c3)c2c1 | 0.979
Nc1cccc2c1C(=O)N(C1CCC(=O)NC1=O)C2=O (stereo not given) [Pomalidomide] | 0.988
Nc1nc(NCCNc2ncc(-n3ccnc3)c(-c3ccc(Cl)cc3Cl)n2)ccc1[N+](=O)[O-] | 0.874

Some of the entries so far, as labelled records:
N#CSc1cc(SC#N)c(N)nc1N
  GFP-: 1.02
COc1cc(O)c2c(c1)C(=O)c1cc(C)cc(O)c1C2=O [Physcion]
  GFP-: 0.956
C[C@H](C(=O)O)c1ccc(-c2ccccc2)c(F)c1 [Flurbiprofen]
  GFP-: 0.969

(more compounds)

Structure (SMILES) | GFP-
COc1ccc(-c2ccc3ncc4c(c3c2)n(-c2ccc(N3CCNCC3)c(C(F)(F)F)c2)c(=O)n4C)cn1 | 0.4
NNC(=O)c1ccncc1 [Isoniazid] | 1.07
c1ccc2[nH]c(-c3cscn3)nc2c1 [Thiabendazole] | 0.925
Cn1c(=O)c2c(ncn2CC2OCCO2)n(C)c1=O [Doxofylline] | 1.14
O=C1[O][Pt]2(<-[NH2][C@@H]3CCCC[C@H]3[NH2]->2)[O]C1=O [Oxaliplatin] | 0.641
O=C(N[C@H](CO)[C@H](O)c1ccc([N+](=O)[O-])cc1)C(Cl)Cl [Chloramphenicol] | 0.717
CCNC(=O)c1[nH]nc(-c2cc(Cl)c(O)cc2O)c1-c1ccc(OC)cc1 | 0.89
NC1(Cc2ccc(Cl)cc2)CCN(c2ncnc3[nH]ccc23)CC1 | 0.822
CCOC(=O)O[C@]1(C(=O)OCCl)CC[C@H]2[C@@H]3CCC4=CC(=O)C=C[C@]4(C)[C@H]3[C@@H](O)C[C@@]21C [Loteprednol etabonate] | 1.03
CCN(C(=O)c1c(O)c2c(Cl)cccc2n(C)c1=O)c1ccccc1 [Laquinimod] | 1.13
CC(C)/N=c1\cc2n(-c3ccc(Cl)cc3)c3ccccc3[nH]c-2c\c1=N/c1ccc(Cl)cc1 [Clofazimine] | 1.08
Cc1cc(C)nc(NS(=O)(=O)c2ccc(NC(=S)NC(=O)COc3ccc(Br)cc3Cl)cc2)n1 | 1.01
CN(C)C1CCN(C(=O)c2ccc(NC(=O)Nc3ccc(-c4nc(N5CCOCC5)nc(N5CCOCC5)n4)cc3)cc2)CC1 | 0.796
Clc1ccc(C(Cn2ccnc2)OCc2csc3c(Cl)cccc23)c(Cl)c1 (stereo not given) [Sertaconazole] | 1.05
CC(C)C[C@H](NC(=O)[C@H](Cc1ccccc1)NC(=O)c1cnccn1)B(O)O [Bortezomib] | 0.294
N#CCNC(=O)c1ccc(-c2ccnc(Nc3ccc(N4CCOCC4)cc3)n2)cc1 | 0.811 ± 0.046
Cc1ccc2c(=O)c3cccc(CC(=O)O)c3oc2c1C [Vadimezan] | 0.99
CC12CC3CC(C)(C1)CC(N)(C3)C2 [Memantine] | 0.978
Cc1cc(-c2ccc(CC(=O)Nc3ccc(-c4cccnc4)cc3)cc2)ccn1 | 1.04
CC(=O)N1CCN(c2ccc(OC[C@H]3CO[C@](Cn4ccnc4)(c4ccc(Cl)cc4Cl)O3)cc2)CC1 [Ketoconazole] | 1.15
O=c1oc2cc(O)ccc2s1 [Thioxolone, Tioxolone] | 1.01
CC(C)[C@H](O)C(=O)N[C@@H](C)C(=O)N[C@@H]1C(=O)N(C)CCc2ccccc21 [Semagacestat] | 1.01
CC(C)(C)CC(C)(C)c1ccc(OCCOCC[N+](C)(C)Cc2ccccc2)cc1 [Benzethonium Chloride] | 1.01
COc1c(C)cnc(Cn2cnc3c(Cl)nc(N)nc32)c1C | 0.671

Structure (SMILES) | GFP-
CC(C)OC(=O)OCOP(=O)(CO[C@H](C)Cn1cnc2c(N)ncnc21)OCOC(=O)OC(C)C [Tenofovir Disoproxil] | 1.1
COc1ccc(CCC(=O)Nc2nc3ccc(Cl)cc3s2)cc1OC | 0.946
N=C(N)Nc1nc(CSCCC(=N)NS(N)(=O)=O)cs1 [Famotidine] | 1.11
CC(C)(C)NC(=O)[C@H]1CC[C@H]2[C@@H]3CC[C@H]4NC(=O)C=C[C@]4(C)[C@H]3CC[C@]12C [Finasteride] | 1.04
CCc1cc(Nc2nccc(-c3c(-c4ccc(OC)c(C(=O)Nc5c(F)cccc5F)c4)nc4ccccn34)n2)c(OC)cc1N1CCC(N2CCN(S(C)(=O)=O)CC2)CC1 | 1.03
CN(CCOc1ccc(CC2SC(=O)NC2=O)cc1)c1ccccn1 (stereo not given) [Rosiglitazone, Rosiglitazone Maleate] | 0.942
Cc1cc2c(cc1CC(=O)c1sccc1S(=O)(=O)Nc1onc(C)c1Cl)OCO2 [Sitaxentan] | 0.724
CCCCC1C(=O)N(c2ccccc2)N(c2ccccc2)C1=O [Phenylbutazone] | 1.13
CC(=O)OCC(=O)[C@@]1(O)CC[C@H]2[C@@H]3CCC4=CC(=O)CC[C@]4(C)[C@H]3C(=O)C[C@@]21C [Cortisone acetate] | 0.809
CCN1CCN(c2cc3c(cc2F)c(=O)c(C(=O)O)cn3C2CC2)CC1 [Enrofloxacin] | 1.14
Cc1ccc(C(=O)Cn2c3c(sc2=N)CCCC3)cc1 [Pifithrin] | 1.03
Cc1c(Nc2ncccc2C(=O)O)cccc1C(F)(F)F [Flunixin Meglumine] | 0.939
O=c1cc(N2CCOCC2)oc2c(-c3ccccc3)cccc12 | 0.978
Nc1c(CC(=O)O)cccc1C(=O)c1ccccc1 [Amfenac Sodium Monohydrate] | 0.787
C[C@H](CS)C(=O)N1CCC[C@H]1C(=O)O [Captopril] | 0.691
CC1(COc2ccc3c(c2)ncn3-c2ccc3cccc(N4CCC(N)CC4)c3n2)COC1 [Crenolanib] | 0.948
Cc1cc(Nc2ncnc3ccc(-c4ccc(CNCCS(C)(=O)=O)o4)cc23)ccc1Oc1ccn2ncnc2c1 [HER2-Inhibitor-1] | 0.989
CN(C)CCCCC(=O)Nc1ccc(NC(=S)NC(=O)c2ccc(C(C)(C)C)cc2)cc1 [Tenovin-6] | 0.854
CC(C)Oc1ccc(-c2cnc3c(-c4ccnc5ccccc45)cnn3c2)cc1 | 0.966
Cc1coc2c1C(=O)C(=O)c1c-2ccc2c(C)cccc12 [Tanshinone I] | 1.03
NCCc1ccc(O)c(O)c1 [Dopamine] | 1.02
Cc1ccccc1C(=O)Nc1ccc(C(=O)N2CCCC(O)c3cc(Cl)ccc32)c(C)c1 (stereo not given) [Tolvaptan] | 0.996
